In the experiment the test system is RAW 264.7. The experiment is described as follows: cell viability (MTT) relative to vehicle control; higher = more viable cells. The following applies: stimulus: HMGB1 5 ug/ml, 18 h.
Where [1] appears, read: compound concentration: 1 ug/ml.

“And” between values parts separate entries of the source, which are not always exact repeats. Identical values can stand only once. Counter-ions that a name gives are not always drawn. ± gives the standard deviation of the averaged measurements. The list shows a part of the results. Repeats are few or missing, and single values can be far off.

On to `CN(C)[C@@H]1C(O)=C(C(N)=O)C(=O)[C@@]2(O)C(O)=C3C(=O)c4c(O)cccc4[C@@](C)(O)[C@H]3[C@H](O)[C@@H]12` [Oxytetracycline hydrochloride], for which, under setting [1], the cell viability turned out to be 91.7%. On the same count and under the same terms, the value for `COc1cc(-c2cc(=O)c3c(O)c(OC)c(OC4OC(COC5OC(C)C(O)C(O)C5O)C(O)C(O)C4O)cc3o2)ccc1O` (stereo not drawn) [Demethoxycentaureidin 7-O-rutinoside] was 103%. As for `Nc1ccc(CCNc2ncnc3c2ncn3C2OC(CO)C(O)C2O)cc1` (stereo not drawn) [N6-2-(4-Aminophenyl)ethyladenosine], the cell viability (compound concentration: 3 uM) was determined as 103%. For the compound `Oc1cc2c(cc1O)[C@@H]1c3ccc(O)c(O)c3OC[C@]1(O)C2` [Hematoxylin], the cell viability under setting [1] is 95.5%. `CC(=O)[C@H]1CC[C@H]2[C@@H]3CC=C4C[C@@H](O)CC[C@]4(C)[C@H]3CC[C@]12C` [Pregnenolone]: under “compound concentration: 3 uM”, the cell viability was 99.2 ± 5.3%.

On to `CC(=O)[C@H]1CC[C@H]2[C@@H]3CC=C4C[C@@H](O)CC[C@]4(C)[C@H]3CC[C@]12C`, for which the cell viability (compound concentration: 3 uM) is 118%.

For `COc1ccc(CC2c3cc(OC)c(OC)cc3CC[N+]2(C)CCC(=O)OCCCCCOC(=O)CC[N+]2(C)CCc3cc(OC)c(OC)cc3C2Cc2ccc(OC)c(OC)c2)cc1OC` (stereo not drawn) [Atracurium besylate], under “compound concentration: 3 uM”, the cell viability worked out at 116%. `COc1ccc(CC2c3cc(OC)c(OC)cc3CC[N+]2(C)CCC(=O)OCCCCCOC(=O)CC[N+]2(C)CCc3cc(OC)c(OC)cc3C2Cc2ccc(OC)c(OC)c2)cc1OC` (stereo not drawn): for the setting “compound concentration: 3 uM”, the cell viability was 106%. The same measure, in the same setting: the value for `COc1ccc(CC2c3cc(OC)c(OC)cc3CC[N+]2(C)CCC(=O)OCCCCCOC(=O)CC[N+]2(C)CCc3cc(OC)c(OC)cc3C2Cc2ccc(OC)c(OC)c2)cc1OC` (stereo not drawn) [Atracurium] was 108%. Turning to `CN(C)c1ccc(C(=C2C=CC(=[N+](C)C)C=C2)c2ccc(N(C)C)cc2)cc1`, the cell viability (compound concentration: 3 uM) stood at 32%. As to `O=c1ccn([C@@H]2O[C@H](COP(=O)(O)OP(=O)(O)OP(=O)(O)O)[C@@H](O)[C@H]2O)c(=O)[nH]1` [Uridine 5'-triphosphate trisodium salt hydrate], under setting [1], the cell viability was determined as 105%. Take `CC(C)c1ccc2c(c1)c(SC(C)(C)C)c(CC(C)(C)C(=O)O)n2Cc1ccc(Cl)cc1`: the cell viability (compound concentration: 3 uM) is 89.5% and 85.9%. On to `CCN(CCO)CCCC(C)Nc1ccnc2cc(Cl)ccc12` (stereo not drawn), for which the cell viability (compound concentration: 3 uM) amounted to 111%. With `CCOC(=O)NNc1nncc2ccccc12`, the cell viability (compound concentration: 3 uM) came to 105%.

`CCOC(=O)NNc1nncc2ccccc12` [Todralazine hydrochloride]: the cell viability (compound concentration: 3 uM) was found to be 93.3%.

On to `CCCCN1CCCCC1C(=O)Nc1c(C)cccc1C` (stereo not drawn) [Bupivacaine], for which, where the note is “compound concentration: 3 uM”, the cell viability was found to be 105%. Turning to `CCCCN1CCCCC1C(=O)Nc1c(C)cccc1C` (stereo not drawn) [Bupivacaine hydrochloride], where the note is “compound concentration: 3 uM”, the cell viability came out at 101%.

With `CCCCN1CCCCC1C(=O)Nc1c(C)cccc1C` (stereo not drawn), the cell viability (compound concentration: 3 uM) came to 106%. For `CC(COc1ccccc1)NC(C)C(O)c1ccc(O)cc1` (stereo not drawn), where the note is “compound concentration: 3 uM”, the cell viability was determined as 94.2%. The same measure, in the same setting: the value for `CC(COc1ccccc1)NC(C)C(O)c1ccc(O)cc1` (stereo not drawn) [Isoxsuprine hydrochloride] was 105%.

Consider `CC(C)(C)c1ccc(C(O)CCCN2CCC(C(O)(c3ccccc3)c3ccccc3)CC2)cc1` (stereo not drawn) [Terfenadine], for which the cell viability (compound concentration: 3 uM) stood at 102 ± 7%.

Consider `CC(C)(C)c1ccc(C(O)CCCN2CCC(C(O)(c3ccccc3)c3ccccc3)CC2)cc1` (stereo not drawn), for which the cell viability (compound concentration: 3 uM) came out at 82.9%. On the same count and under the same terms, to `COc1ccnc(C[S+]([O-])c2nc3cc(OC(F)F)ccc3[nH]2)c1OC` (stereo not drawn) [Pantoprazole] belongs 104%.

For `COc1ccnc(C[S+]([O-])c2nc3cc(OC(F)F)ccc3[nH]2)c1OC` (stereo not drawn), the cell viability (compound concentration: 3 uM) was 92% and 113%.

For the compound `O=C(NCCO)c1ccc2c(c1)nc(Nc1cccc(Cl)c1)c1ccncc12` [CK2 Inhibitor 2], the cell viability (compound concentration: 3 uM) was 109%. On the same count and under the same terms, to `Nc1ccn([C@@H]2O[C@H](CO)[C@@H](O)[C@@H]2O)c(=O)n1` [Cytarabine] belongs 96.4 ± 7.3%; to `Nc1ccn([C@@H]2O[C@H](CO)[C@@H](O)[C@@H]2O)c(=O)n1` [Cytosine-1-beta-D-arabinofuranoside hydrochloride], 79.2%. Still for that read-out and setting: the value for `Nc1ccn([C@@H]2O[C@H](CO)[C@@H](O)[C@@H]2O)c(=O)n1` was 79.1 ± 8.2%. Consider `Nc1ncnc2c1ncn2C1CCCO1` (stereo not drawn), for which the cell viability (compound concentration: 3 uM) amounted to 119%. Take `O=c1[nH]c(=O)c2ccccc2o1`: the cell viability (compound concentration: 3 uM) stood at 109%. Same read-out and setting: to `CO[C@H]1C[C@H](O[C@H]2[C@H](C)[C@@H](O[C@@H]3O[C@H](C)C[C@H](N(C)C)[C@H]3O)[C@@H](C)C[C@@]3(CO3)C(=O)[C@H](C)[C@@H](O)[C@@H](C)[C@@H](C)OC(=O)[C@@H]2C)O[C@@H](C)[C@@H]1O` belongs 108 ± 5%.

As for `Nc1ccc(S(=O)(=O)Nc2ccccn2)cc1` [Sulfapyridine], where the note is “compound concentration: 3 uM”, the cell viability is 132%. Same read-out and setting: to `Nc1ccc(S(=O)(=O)Nc2ccccn2)cc1` belongs 102%. `O=C(O)[C@H]1O[C@@H](Oc2cc3oc(-c4ccccc4)cc(=O)c3c(O)c2O)[C@H](O)[C@@H](O)[C@@H]1O` [Baicalin hydrate]: the cell viability under setting [1] is 77.2%. `N[C@@H](Cc1ccc(O)c(I)c1)C(=O)O` [3-Iodo-L-tyrosine]: for the setting “compound concentration: 3 uM”, the cell viability was found to be 97.8%. Still for that read-out and setting: to `C[N+](C)(C)[C@@H](Cc1c[nH]c(=S)[nH]1)C(=O)[O-]` [Ergothioneine] belongs 114%. Take `COc1cc([C@@H]2c3cc4c(cc3[C@@H](O[C@@H]3O[C@@H]5CO[C@@H](c6cccs6)O[C@H]5[C@H](O)[C@H]3O)[C@H]3COC(=O)[C@H]23)OCO4)cc(OC)c1O`: where the note is “compound concentration: 3 uM”, the cell viability was 63.6 ± 24%. Turning to `CC(C)Cn1c(=O)n(C)c(=O)c2[nH]cnc21` [3-Isobutyl-1-methylxanthine], under “compound concentration: 3 uM”, the cell viability was 102%.

The values are drawn from the supplement of paper PMC3682954.
